We go through 1 substance from article PMC8833744, “Strategic Decoy Peptides Interfere with MSI1/AGO2 Interaction to Elicit Tumor Suppression Effects” (Cancers, 2022).

Chains of the proteins cited; added tags and fusions are not shown.
UniProt Q9UKV8: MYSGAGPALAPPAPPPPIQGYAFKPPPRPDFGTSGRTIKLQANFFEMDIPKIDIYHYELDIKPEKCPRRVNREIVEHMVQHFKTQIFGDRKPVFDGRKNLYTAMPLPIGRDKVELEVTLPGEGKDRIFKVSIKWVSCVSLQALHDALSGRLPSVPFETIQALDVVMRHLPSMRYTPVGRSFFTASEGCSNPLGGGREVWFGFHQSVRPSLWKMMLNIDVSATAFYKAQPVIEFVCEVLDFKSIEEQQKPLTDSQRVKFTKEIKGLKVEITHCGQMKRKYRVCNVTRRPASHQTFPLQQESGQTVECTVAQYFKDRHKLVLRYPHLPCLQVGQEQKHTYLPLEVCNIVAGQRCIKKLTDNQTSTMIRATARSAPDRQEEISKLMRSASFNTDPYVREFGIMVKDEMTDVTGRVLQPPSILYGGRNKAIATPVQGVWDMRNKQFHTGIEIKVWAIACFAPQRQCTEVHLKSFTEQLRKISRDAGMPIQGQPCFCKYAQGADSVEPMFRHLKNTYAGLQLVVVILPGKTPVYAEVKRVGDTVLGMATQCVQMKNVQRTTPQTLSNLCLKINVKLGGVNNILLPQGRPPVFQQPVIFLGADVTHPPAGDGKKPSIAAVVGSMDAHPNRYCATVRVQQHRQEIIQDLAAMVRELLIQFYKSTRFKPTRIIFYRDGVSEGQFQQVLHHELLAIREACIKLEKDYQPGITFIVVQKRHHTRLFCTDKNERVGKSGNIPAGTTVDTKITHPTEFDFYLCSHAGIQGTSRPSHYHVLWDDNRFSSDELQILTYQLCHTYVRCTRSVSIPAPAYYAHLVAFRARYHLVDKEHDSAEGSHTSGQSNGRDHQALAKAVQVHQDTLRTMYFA
UniProt O43347: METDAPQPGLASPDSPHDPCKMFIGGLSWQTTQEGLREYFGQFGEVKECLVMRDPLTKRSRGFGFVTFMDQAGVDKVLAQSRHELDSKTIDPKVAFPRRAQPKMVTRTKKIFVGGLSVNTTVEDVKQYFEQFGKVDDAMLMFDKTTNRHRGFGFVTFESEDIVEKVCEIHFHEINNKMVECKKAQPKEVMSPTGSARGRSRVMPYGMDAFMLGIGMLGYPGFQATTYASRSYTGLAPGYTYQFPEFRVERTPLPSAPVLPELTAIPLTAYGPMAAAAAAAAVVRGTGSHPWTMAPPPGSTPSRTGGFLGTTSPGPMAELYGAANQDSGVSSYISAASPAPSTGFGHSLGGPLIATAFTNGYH

These are yes or no findings as the source states them, for the method shown. In cells and extracts the contact can be indirect. Some results given as binding are weak or reduced against the parent protein; the word gives no strength.

In this assay the target is AGO2 fused to the C-terminal fragment of Gaussia luciferase (A-CGluc) (UniProt Q9UKV8). The assay can be described thus: split reporter; split Gaussia luciferase reconstitution, M-NGluc and A-CGluc in DBTRG-05MG stable cells; PBS-treated (no cisplatin); luminescence by IVIS.

In the case of “MSI1 fused to the N-terminal fragment of Gaussia luciferase (M-NGluc) (from UniProt O43347 1-362)”, the binding entry is on record as “binds weakly”.
